Consider 1 sequence from PMC4982076, “lin28 proteins promote expression of 17∼92 family miRNAs during amphibian development”.

Data set [1] deals with lin28a1. Put plainly: EMSA supershift. As to conditions: embryo extract, anti-lin28a; 60 mM KCl, 10 mM HEPES pH 7.6, 3 mM MgCl2, 5% glycerol, 1 mM DTT, 5 ug/ul heparin, 150 ng yeast total RNA; 30 min room temperature; 10% native PAGE; protein in a lysate after overexpression; label: 32P (unlabelled as competitor).
In data set [2] the test system is lin28a2. Briefly: EMSA supershift. To be noted: embryo extract, anti-lin28a; 60 mM KCl, 10 mM HEPES pH 7.6, 3 mM MgCl2, 5% glycerol, 1 mM DTT, 5 ug/ul heparin, 150 ng yeast total RNA; 30 min room temperature; 10% native PAGE; protein in a lysate after overexpression; label: 32P (unlabelled as competitor).

The exact form of at least one protein or probe is not confirmed. Results from cells or extracts need not show a direct contact.

On to “UGCAAUUUUAUUUAGUUUGGUAGGAGAAAAAUUGC [L-mir-363]”, for which the binding result in data set [1] and in data set [2] was “binds” each time.
